According to publication doi:10.1101/2024.05.03.592456:
These are yes or no findings as the source states them, for the method shown. Binding seen in cells or lysates may run through a third protein. Sequences can lack the tags named with a protein.

By UniProt entry, the sequences of proteins in these tests, tags left out.
UniProt P21926: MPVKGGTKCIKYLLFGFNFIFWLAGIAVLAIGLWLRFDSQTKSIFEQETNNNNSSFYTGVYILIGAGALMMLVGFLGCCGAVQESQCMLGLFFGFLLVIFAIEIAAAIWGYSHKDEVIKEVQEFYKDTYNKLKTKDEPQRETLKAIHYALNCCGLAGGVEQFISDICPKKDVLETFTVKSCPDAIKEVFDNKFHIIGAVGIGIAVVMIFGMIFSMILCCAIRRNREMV

Target: T1, ILDR2-myc (UniProt Q71H61)
T1 sequence: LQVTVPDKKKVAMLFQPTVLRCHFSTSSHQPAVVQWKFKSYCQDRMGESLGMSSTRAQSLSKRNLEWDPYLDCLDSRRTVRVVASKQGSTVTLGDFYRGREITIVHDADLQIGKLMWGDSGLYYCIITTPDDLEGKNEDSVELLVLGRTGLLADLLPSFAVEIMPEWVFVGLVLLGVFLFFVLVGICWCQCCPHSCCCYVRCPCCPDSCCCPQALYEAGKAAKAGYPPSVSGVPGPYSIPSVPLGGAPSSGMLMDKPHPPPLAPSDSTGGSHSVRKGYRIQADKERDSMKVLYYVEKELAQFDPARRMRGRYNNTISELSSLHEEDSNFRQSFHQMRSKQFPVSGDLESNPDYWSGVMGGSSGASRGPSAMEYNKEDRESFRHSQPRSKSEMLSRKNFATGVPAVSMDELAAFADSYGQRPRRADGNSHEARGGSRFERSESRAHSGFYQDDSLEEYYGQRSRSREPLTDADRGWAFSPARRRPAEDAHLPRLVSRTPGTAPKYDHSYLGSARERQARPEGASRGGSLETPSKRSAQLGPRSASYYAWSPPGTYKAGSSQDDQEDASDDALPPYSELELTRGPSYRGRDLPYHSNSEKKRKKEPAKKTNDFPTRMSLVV
Assay: co-IP

binding: no binding
Substance: CD9 (from UniProt P21926 1-228)
